System: NCI-H28 (Mesothelioma)
Assay: Bliss excess, mean over the matrix (fraction); higher = more synergy
Procedure, shortened: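 Cell lines in DMEM/F12 or RPMI with 10% FBS were plated in 1536-well plates, held 24 hours at 37°C, 5% CO2, then given two-drug dose matrices for 72 hours (DMSO typically 0.2%). Viability was read by CellTiter-Glo 2.0 luminescence and scaled as inhibition from 0 (vehicle wells) to 1 (blank wells). Combination Emax is the second-highest inhibition in the matrix; Bliss excess is observed combination effect minus expected EA + EB − EA·EB, EA and EB being single-agent effects.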

`COc1cc2ncnc(Nc3ccc(F)c(Cl)c3)c2cc1OCCCN1CCOCC1` [Gefitinib] + CC(C)n1c(=O)n(C)c2cnc3cc(F)c(-c4ccc(OCCCN5CCCCC5)nc4)cc3c21 [AZD1390] (first compound max 10 µM, 7x7, partner max 0.3 µM) gave a Bliss excess of -0.0618.

Reference: the supplement of paper PMC11061612
